# Assay results reported in PubChem BioAssay AID602346 (Broad Institute, 2012).
# The campaign covered roughly 340,000 compounds. About 1,200 (0.35%) were called active. This list was built around the results that the source calls inconclusive (neither active nor inactive); the mix of calls is not that of the screen. Rule as the data show it: active = inhibition above about 50% (passing the limit was not always enough); inconclusive = no clear call, values can overlap the other calls; inactive = below about 31%.
# Assay: blockers of Vif multimerization in cells – imaging, HEK293T, single point, primary screen (AID 602346)
# Conditions: Vif self-association by quenched fluorescence, 24 h, at 7.49 µM, hits give high values
row,SMILES,inhibition
1,CN(C(=O)COC(=O)C1(C)CC1(Cl)Cl)c1c(N)n(Cc2ccccc2)c(=O)[nH]c1=O (centres undefined),inconclusive: 34.6%
2,Cc1cccc(C)c1Nc1c(-c2ccccc2O)nc2ncccn12,inconclusive: 26.4%
3,CC(=O)Nc1ccc(NC(=O)c2cccc(S(=O)(=O)N3CCCCCC3)c2)cc1,inconclusive: 35%
4,C/C(=N\NC(=O)c1cccc(Br)c1)c1ccccn1,inactive: 1.61%
5,C=CC[C@]12C=C(OC)C(=O)C=C1O[C@@H](c1ccc3c(c1)OCO3)[C@H]2C,inconclusive: 22.9%
6,COC(=O)c1c(NC(=O)CSc2nnnn2-c2ccccc2)sc2c1CCC(C(C)(C)C)C2 (centres undefined),inactive: -2.26%
7,Cc1cc(C(=O)Nc2c(F)c(F)c(F)c(F)c2F)n(-c2ccccc2)n1,active: 72.9%
8,CCn1c(CNC(=O)c2ccccc2F)cc2ccccc21,inactive: -11.4%
9,COC(=O)C1=NNC(C(=O)c2ccco2)C1c1ccc(OC)cc1 (centres undefined),active: 52.5%
10,COc1ccc(NC(=O)C2CC(=O)N(Cc3ccco3)C2)cc1Cl (centres undefined),inconclusive: 37.5%
11,CCOc1cc(NC(=O)c2ccco2)c(OCC)cc1NC(=O)c1cc(OC)c(OC)c(OC)c1,inconclusive: 36.7%
12,COC(=O)/C(C#N)=C/c1c(N2CCN(c3ccc(OC)cc3)CC2)nc2c(C)cccn2c1=O,inconclusive: 36.1%
13,O=C(CNC(=O)c1ccc(Cl)cc1)c1ccc(Cl)cc1,inactive: -2.57%
14,Nc1c(-c2nn[nH]n2)cnn1-c1cc(Cl)cc(Cl)c1,inconclusive: 30.8%
15,Oc1[nH]c2ccccc2c1N=Nc1cccc(Cl)c1,inconclusive: 23.2%
16,Cc1cccc(NC(=O)c2ccccc2NC(=O)Cc2ccccc2)c1C,inconclusive: 40.9%
17,CC(=O)Nc1ccc(NC(=O)C(C)OC(=O)c2ccc(N(C)C)cc2)cc1 (centres undefined),inconclusive: 36%
18,O=C(CCl)N=c1sccn1Cc1cccc2ccccc12,inconclusive: 45.6%
19,COc1ccc(/C=C/C(=O)N2CCN(C)CC2)cc1S(=O)(=O)N1CCCCC1,inconclusive: 33.4%
20,CC1(C)CNc2cc(N)ccc2S1,inactive: 4.93%
21,COc1ccc2[nH]c(=O)c(-c3noc(-c4ccc(F)cc4)n3)cc2c1,inconclusive: 45.3%
22,CN(Cc1ccc(Cl)cc1)C(=O)CCl,inactive: 27.8%
23,Oc1ccc(C2=Nn3c(nnc3-c3ccco3)SC2)cc1O,inconclusive: 43%

# Quoted from the listing:
# inhibition, O=C(CCl)N=c1sccn1Cc1cccc2ccccc12 is entered as inconclusive: 45.6%
# inhibition, Cc1cccc(C)c1Nc1c(-c2ccccc2O)nc2ncccn12 is entered as inconclusive: 26.4%

# The list continues:

row,SMILES,inhibition
1,COc1ccc(/C=C2\CCCC3C2=NN(C(=O)CSc2ncn[nH]2)C3c2ccc(OC)cc2)cc1 (centres undefined),inconclusive: 28.3%
2,CC(=O)c1sc2nsc(SCCN3CCCC3)c2c1N,inconclusive: 32.6%
3,N#CCC(=O)Nc1ccc(C(=O)OCC(=O)NC(=O)NCc2ccco2)cc1,inconclusive: 31.8%
4,COc1ccccc1N1CCN(C(=O)c2ccc(NC3=NC4CS(=O)(=O)CC4S3)cc2)CC1 (centres undefined),inconclusive: 31.1%
5,CCOc1c(C(N)=O)c(-c2ccccc2)c2c(=O)[nH]c3ccccc3n12,active: 31.7%
6,Cc1ccc(NS(=O)(=O)c2cccc(C(=O)N(C)Cc3cccs3)c2)cc1,inactive: -6.21%
7,CCOC(=O)C1CCCN(C2=NC(=O)/C(=C/c3ccc(N(C)C)cc3)S2)C1 (centres undefined),inconclusive: 30.7%
8,Oc1c(Cl)cc(Cl)cc1/C=N/c1nc(-c2ccc(Cl)cc2)cs1,inconclusive: 40.9%
9,COc1cc(-c2cc(=O)c3c(O)c(OC)c(OC)cc3o2)cc(OC)c1O,active: 89%
10,CCCc1ccc(C(=O)NNc2cccc(C)c2)cc1,inconclusive: 29.1%
11,CNC(=O)c1ccc(NC(=O)c2cc(S(=O)(=O)N(C)C)ccc2N2CCCC2)cc1,inconclusive: 47.2%
12,CS(=O)(=O)N1CCc2ccc(NC(=O)C3CCCO3)cc2C1 (centres undefined),inconclusive: 26.4%
13,CCOC(=O)c1sc2ncc([N+](=O)[O-])cc2c1N,inactive: -6.46%
14,COc1cc(C(O)c2nc(/C=C/c3ccccc3)cs2)ccc1F (centres undefined),inconclusive: 27.5%
15,Cc1c(N)cc2c(c1N)C(C)(C)CC2(C)C,inconclusive: 46.3%
16,COc1ccc(N(C2CSC2)S(=O)(=O)c2ccccc2)cc1,inconclusive: 35.1%
17,CN(C)S(=O)(=O)c1ccc(NC(=O)c2ccccn2)cc1,inactive: -11.7%
18,O=C(CN1C(=O)COc2ccc(S(=O)(=O)N3CCOCC3)cc21)Nc1cccc(Cl)c1,inconclusive: 30.4%
19,CC(=O)Nc1ccccc1C(=O)C(=O)Nc1ccc(Cl)cc1,inactive: -18.8%
20,CN1CC=C2C(C#N)=C(N)C(C#N)(C#N)[C@H](c3ccoc3)[C@H]2C1,inactive: 3.31%
21,Cc1cc(C)n(-c2nc3ccccc3n3cnnc23)n1,inactive: -7.7%
22,O=C(COC(=O)c1cnccn1)c1ccc(C2CCCCC2)cc1,inconclusive: 26.3%
23,COc1ccc(C2(CNC(=O)c3cc(OC)c(OC)c(OC)c3)CCCC2)cc1OC,inactive: 24%

# Gathered by group: those above containing two or more sulfur atoms
row,SMILES,inhibition
6,COC(=O)c1c(NC(=O)CSc2nnnn2-c2ccccc2)sc2c1CCC(C(C)(C)C)C2 (centres undefined),inactive: -2.26%
2,CC(=O)c1sc2nsc(SCCN3CCCC3)c2c1N,inconclusive: 32.6%
4,COc1ccccc1N1CCN(C(=O)c2ccc(NC3=NC4CS(=O)(=O)CC4S3)cc2)CC1 (centres undefined),inconclusive: 31.1%
6,Cc1ccc(NS(=O)(=O)c2cccc(C(=O)N(C)Cc3cccs3)c2)cc1,inactive: -6.21%
16,COc1ccc(N(C2CSC2)S(=O)(=O)c2ccccc2)cc1,inconclusive: 35.1%

# (next part)

row,SMILES,inhibition
1,COc1ccc(/C=c2\s/c(=C/C(=O)c3ccc(C)cc3)[nH]c2=O)c(OC)c1,active: 96.6%
2,CC1CC(C)CN(C(=O)COC(=O)c2cc([N+](=O)[O-])ccc2N2CCOCC2)C1 (centres undefined),inconclusive: 35%
3,Cn1c(COc2ccc(Cl)cc2)nnc1SCC(=O)NC1CCCCC1,inactive: -0.485%
4,CCCn1nnc(NC(=O)c2ccc(Br)cc2)n1,inactive: 4.8%
5,Cc1nc(-c2ccc(C(=O)O)cc2)cs1,inconclusive: 18.7%
6,O=C(Nc1cc(C(F)(F)F)ccc1Cl)c1ccc(NC(=O)C(F)(F)F)cc1,inconclusive: 19.7%
7,CC(=O)N1CC2(C)CN(C(C)=O)CC(C)(C1)C2,inconclusive: 43.9%
8,CSc1sc(C(=O)O)c(C)c1C(C)=O,active: 56.3%
9,COCCNC(=O)Cn1c(=O)n(CCCC(=O)NCc2ccc3c(c2)OCO3)c(=O)c2sccc21,inconclusive: 41.7%
10,Cc1c(O)cc2c(c1O)C(=O)CC(c1ccccc1)O2 (centres undefined),inconclusive: 36.7%
11,COc1cccc(-c2coc3c(C)c4oc(=O)c(CCC(=O)O)c(C)c4cc23)c1,inactive: 17.6%
12,O=C(Nc1ccccc1Br)C1CC(=O)N(c2ccc3c4c(cccc24)CC3)C1 (centres undefined),inconclusive: 35.5%
13,Cc1ccc(S(=O)(=O)N2CCC(c3nnc(SCCN4CCCC4)n3C)CC2)cc1,inconclusive: 30.2%
14,CCCN1C(=O)S/C(=C/c2ccc(N3CCOCC3)o2)C1=O,inconclusive: 28.6%
15,O=C(Cn1cc(C(=O)C(=O)N2CCOCC2)c2ccccc21)Nc1cccc(C(F)(F)F)c1,active: 70.2%
16,Cc1ccc(N(C(=O)c2csnn2)C(C(=O)NC2CCCC2)c2ccccn2)cc1 (centres undefined),active: 56.4%
17,O=C(NCCCc1ccccc1)C1CCC(=O)N(Cc2ccc(Cl)cc2)C1 (centres undefined),inconclusive: 35.6%
18,Cc1c(OC(C)C(=O)NC2CC(C)(C)NC(C)(C)C2)ccc2c3c(c(=O)oc12)CCC3 (centres undefined),inconclusive: 28.9%
19,Cc1cccn2c(=O)c(/C=C(\C#N)S(=O)(=O)c3ccccc3)c(Oc3ccc(Cl)cc3)nc12,inconclusive: 25.1%
20,Cc1ccc(C(=O)N/C(=C\c2sccc2C)C(=O)NCc2ccco2)cc1,active: 50.9%
21,CCOc1ccc(/C=N/NC(=O)c2nnn(-c3nonc3N)c2-c2ccc(OCC)cc2)cc1,inactive: -5.83%
22,Cc1ccc(NS(=O)(=O)c2cccc3nsnc23)cc1C,inactive: -7.01%
23,CC(C)C(=O)N=C1SC2CS(=O)(=O)CC2N1Cc1ccccc1 (centres undefined),active: 54.9%

row,SMILES,inhibition
1,COc1ccc(-c2nc(-c3ccccn3)nc(N3CCN(C)CC3)c2C#N)cc1,inconclusive: 47%
2,O=C(Nc1ccc(Br)cc1F)c1ccc2nsnc2c1,inactive: 2.42%
3,CCN(CC(=O)N1CCCC1)S(=O)(=O)c1cc(C)ccc1OC,inconclusive: 38.2%
4,Cc1cc(C(=O)Nc2nc3ccc(S(C)(=O)=O)cc3s2)c(C)o1,inactive: 15.2%
5,Cc1cc(OCC(=O)Nc2ccc(OCc3ccccc3)cc2)nc(C(C)C)n1,inconclusive: 28%
6,C=C1SC(=Nc2ccccc2Cl)N(C(=O)c2sc3ccccc3c2Cl)C1(C)C,inactive: 0.187%
7,Cc1ccc(C)c(/C=C/C(=O)c2ccccc(=O)c2O)c1,inconclusive: 35.2%
8,COc1ccc(C(=O)NNC(=S)NC(=O)c2ccco2)cc1,inconclusive: 25%
9,CC(/C=N/NC(=O)c1cccnc1)=C\c1ccco1,inactive: 0.089%
10,CCN(c1ccccc1)S(=O)(=O)c1ccc(C(=O)Nc2ccccc2OC)cc1,inconclusive: 40.3%
11,Cc1cccc(OCC(=O)Nc2ccc(C(=O)NCC(C)C)cc2)c1,inactive: -2.18%
12,O=C(COC(=O)COc1ccc2ccccc2c1)NC1CCCc2ccccc21 (centres undefined),inconclusive: 40%
13,Cc1ccc(N(C(=O)CNC(=O)c2ccco2)C(C(=O)NC2CCCC2)c2ccncc2)cc1C (centres undefined),inconclusive: 40%
14,CC(C)C(=O)N[C@H]1CCC2C3CC=C4C[C@@H](O)CC[C@]4(C)C3CC[C@@]21C (some centres undefined),inactive: 2.17%
15,CC(C)Cc1ccc(/C=C/C(=O)NC2CC2)cc1,inactive: -17.8%
16,COc1ccc(C[C@@H]2OC3(C=CC(=O)C=C3)O[C@H]2Cc2ccc(OC)cc2)cc1,active: 69.3%
17,S=C1NCCN1CC1CCN(CC2CCCC2)CC1,inconclusive: 24.8%
18,COc1ccc(-c2cc(-c3nc4ccccn4c3NCc3ccccc3)ccc2OC)cc1,active: 77%
19,O=C(CSc1nc(-c2ccco2)cc(C(F)(F)F)n1)NN1CCOCC1,inconclusive: 27.4%
20,COc1cccc(-c2cc(NC=O)c3ncc(-c4cc(OC)c(OC)c(OC)c4)n3c2)c1,active: 76.8%
